Results: patent US12345718B2, “Method for determining the haemoglobin content of an erythroid cell” (UNIVERSITÉ PARIS EST CRÉTEIL VAL DE MARNE, priority 2016, dated 2025)
Some results come without the dose or concentration used.

Experiment: Complete blood count / biological data of SS patients during treatment with hydroxyurea
Assay type: in vivo, human
Conditions: M6 of hydroxyurea, median

NC(=O)NO [hydroxyurea]
Leukocytes: 9 Giga/l | Platelets: 318 giga/1
